Source: the supplement of paper PMC10849652
The list shows a part of the results.

The chains behind the UniProt entries cited, without tags or fusion partners. Where a name states a change or a piece, a line headed by the entry shows the natural chain unless it says otherwise.
UniProt Q6NS38: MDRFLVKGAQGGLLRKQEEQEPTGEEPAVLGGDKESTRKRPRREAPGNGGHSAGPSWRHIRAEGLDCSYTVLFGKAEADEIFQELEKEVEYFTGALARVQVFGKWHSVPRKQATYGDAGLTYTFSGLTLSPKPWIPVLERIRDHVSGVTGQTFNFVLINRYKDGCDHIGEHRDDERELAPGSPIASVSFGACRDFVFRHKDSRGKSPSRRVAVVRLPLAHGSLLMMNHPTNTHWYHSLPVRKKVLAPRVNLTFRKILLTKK
UniProt Q8WVL7: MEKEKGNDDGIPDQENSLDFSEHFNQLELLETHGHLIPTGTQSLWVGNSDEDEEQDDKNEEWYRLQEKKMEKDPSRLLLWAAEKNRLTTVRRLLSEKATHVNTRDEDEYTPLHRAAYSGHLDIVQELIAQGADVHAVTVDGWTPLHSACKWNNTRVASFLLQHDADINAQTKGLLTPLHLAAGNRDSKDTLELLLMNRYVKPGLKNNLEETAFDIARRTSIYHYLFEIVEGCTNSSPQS
UniProt P05091: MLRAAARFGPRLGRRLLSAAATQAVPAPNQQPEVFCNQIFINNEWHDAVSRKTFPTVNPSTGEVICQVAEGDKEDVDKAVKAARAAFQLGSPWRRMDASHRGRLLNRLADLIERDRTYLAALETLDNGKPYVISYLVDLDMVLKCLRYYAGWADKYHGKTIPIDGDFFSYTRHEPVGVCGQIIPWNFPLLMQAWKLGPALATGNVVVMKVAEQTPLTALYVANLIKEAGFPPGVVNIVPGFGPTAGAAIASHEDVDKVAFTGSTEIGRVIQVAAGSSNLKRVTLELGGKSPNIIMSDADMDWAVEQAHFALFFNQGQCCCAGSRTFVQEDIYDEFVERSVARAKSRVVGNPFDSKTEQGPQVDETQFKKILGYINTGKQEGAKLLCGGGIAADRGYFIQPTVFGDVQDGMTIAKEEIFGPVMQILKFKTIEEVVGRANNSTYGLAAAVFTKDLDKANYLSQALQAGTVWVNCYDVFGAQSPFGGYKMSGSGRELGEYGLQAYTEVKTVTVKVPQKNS
UniProt Q12955: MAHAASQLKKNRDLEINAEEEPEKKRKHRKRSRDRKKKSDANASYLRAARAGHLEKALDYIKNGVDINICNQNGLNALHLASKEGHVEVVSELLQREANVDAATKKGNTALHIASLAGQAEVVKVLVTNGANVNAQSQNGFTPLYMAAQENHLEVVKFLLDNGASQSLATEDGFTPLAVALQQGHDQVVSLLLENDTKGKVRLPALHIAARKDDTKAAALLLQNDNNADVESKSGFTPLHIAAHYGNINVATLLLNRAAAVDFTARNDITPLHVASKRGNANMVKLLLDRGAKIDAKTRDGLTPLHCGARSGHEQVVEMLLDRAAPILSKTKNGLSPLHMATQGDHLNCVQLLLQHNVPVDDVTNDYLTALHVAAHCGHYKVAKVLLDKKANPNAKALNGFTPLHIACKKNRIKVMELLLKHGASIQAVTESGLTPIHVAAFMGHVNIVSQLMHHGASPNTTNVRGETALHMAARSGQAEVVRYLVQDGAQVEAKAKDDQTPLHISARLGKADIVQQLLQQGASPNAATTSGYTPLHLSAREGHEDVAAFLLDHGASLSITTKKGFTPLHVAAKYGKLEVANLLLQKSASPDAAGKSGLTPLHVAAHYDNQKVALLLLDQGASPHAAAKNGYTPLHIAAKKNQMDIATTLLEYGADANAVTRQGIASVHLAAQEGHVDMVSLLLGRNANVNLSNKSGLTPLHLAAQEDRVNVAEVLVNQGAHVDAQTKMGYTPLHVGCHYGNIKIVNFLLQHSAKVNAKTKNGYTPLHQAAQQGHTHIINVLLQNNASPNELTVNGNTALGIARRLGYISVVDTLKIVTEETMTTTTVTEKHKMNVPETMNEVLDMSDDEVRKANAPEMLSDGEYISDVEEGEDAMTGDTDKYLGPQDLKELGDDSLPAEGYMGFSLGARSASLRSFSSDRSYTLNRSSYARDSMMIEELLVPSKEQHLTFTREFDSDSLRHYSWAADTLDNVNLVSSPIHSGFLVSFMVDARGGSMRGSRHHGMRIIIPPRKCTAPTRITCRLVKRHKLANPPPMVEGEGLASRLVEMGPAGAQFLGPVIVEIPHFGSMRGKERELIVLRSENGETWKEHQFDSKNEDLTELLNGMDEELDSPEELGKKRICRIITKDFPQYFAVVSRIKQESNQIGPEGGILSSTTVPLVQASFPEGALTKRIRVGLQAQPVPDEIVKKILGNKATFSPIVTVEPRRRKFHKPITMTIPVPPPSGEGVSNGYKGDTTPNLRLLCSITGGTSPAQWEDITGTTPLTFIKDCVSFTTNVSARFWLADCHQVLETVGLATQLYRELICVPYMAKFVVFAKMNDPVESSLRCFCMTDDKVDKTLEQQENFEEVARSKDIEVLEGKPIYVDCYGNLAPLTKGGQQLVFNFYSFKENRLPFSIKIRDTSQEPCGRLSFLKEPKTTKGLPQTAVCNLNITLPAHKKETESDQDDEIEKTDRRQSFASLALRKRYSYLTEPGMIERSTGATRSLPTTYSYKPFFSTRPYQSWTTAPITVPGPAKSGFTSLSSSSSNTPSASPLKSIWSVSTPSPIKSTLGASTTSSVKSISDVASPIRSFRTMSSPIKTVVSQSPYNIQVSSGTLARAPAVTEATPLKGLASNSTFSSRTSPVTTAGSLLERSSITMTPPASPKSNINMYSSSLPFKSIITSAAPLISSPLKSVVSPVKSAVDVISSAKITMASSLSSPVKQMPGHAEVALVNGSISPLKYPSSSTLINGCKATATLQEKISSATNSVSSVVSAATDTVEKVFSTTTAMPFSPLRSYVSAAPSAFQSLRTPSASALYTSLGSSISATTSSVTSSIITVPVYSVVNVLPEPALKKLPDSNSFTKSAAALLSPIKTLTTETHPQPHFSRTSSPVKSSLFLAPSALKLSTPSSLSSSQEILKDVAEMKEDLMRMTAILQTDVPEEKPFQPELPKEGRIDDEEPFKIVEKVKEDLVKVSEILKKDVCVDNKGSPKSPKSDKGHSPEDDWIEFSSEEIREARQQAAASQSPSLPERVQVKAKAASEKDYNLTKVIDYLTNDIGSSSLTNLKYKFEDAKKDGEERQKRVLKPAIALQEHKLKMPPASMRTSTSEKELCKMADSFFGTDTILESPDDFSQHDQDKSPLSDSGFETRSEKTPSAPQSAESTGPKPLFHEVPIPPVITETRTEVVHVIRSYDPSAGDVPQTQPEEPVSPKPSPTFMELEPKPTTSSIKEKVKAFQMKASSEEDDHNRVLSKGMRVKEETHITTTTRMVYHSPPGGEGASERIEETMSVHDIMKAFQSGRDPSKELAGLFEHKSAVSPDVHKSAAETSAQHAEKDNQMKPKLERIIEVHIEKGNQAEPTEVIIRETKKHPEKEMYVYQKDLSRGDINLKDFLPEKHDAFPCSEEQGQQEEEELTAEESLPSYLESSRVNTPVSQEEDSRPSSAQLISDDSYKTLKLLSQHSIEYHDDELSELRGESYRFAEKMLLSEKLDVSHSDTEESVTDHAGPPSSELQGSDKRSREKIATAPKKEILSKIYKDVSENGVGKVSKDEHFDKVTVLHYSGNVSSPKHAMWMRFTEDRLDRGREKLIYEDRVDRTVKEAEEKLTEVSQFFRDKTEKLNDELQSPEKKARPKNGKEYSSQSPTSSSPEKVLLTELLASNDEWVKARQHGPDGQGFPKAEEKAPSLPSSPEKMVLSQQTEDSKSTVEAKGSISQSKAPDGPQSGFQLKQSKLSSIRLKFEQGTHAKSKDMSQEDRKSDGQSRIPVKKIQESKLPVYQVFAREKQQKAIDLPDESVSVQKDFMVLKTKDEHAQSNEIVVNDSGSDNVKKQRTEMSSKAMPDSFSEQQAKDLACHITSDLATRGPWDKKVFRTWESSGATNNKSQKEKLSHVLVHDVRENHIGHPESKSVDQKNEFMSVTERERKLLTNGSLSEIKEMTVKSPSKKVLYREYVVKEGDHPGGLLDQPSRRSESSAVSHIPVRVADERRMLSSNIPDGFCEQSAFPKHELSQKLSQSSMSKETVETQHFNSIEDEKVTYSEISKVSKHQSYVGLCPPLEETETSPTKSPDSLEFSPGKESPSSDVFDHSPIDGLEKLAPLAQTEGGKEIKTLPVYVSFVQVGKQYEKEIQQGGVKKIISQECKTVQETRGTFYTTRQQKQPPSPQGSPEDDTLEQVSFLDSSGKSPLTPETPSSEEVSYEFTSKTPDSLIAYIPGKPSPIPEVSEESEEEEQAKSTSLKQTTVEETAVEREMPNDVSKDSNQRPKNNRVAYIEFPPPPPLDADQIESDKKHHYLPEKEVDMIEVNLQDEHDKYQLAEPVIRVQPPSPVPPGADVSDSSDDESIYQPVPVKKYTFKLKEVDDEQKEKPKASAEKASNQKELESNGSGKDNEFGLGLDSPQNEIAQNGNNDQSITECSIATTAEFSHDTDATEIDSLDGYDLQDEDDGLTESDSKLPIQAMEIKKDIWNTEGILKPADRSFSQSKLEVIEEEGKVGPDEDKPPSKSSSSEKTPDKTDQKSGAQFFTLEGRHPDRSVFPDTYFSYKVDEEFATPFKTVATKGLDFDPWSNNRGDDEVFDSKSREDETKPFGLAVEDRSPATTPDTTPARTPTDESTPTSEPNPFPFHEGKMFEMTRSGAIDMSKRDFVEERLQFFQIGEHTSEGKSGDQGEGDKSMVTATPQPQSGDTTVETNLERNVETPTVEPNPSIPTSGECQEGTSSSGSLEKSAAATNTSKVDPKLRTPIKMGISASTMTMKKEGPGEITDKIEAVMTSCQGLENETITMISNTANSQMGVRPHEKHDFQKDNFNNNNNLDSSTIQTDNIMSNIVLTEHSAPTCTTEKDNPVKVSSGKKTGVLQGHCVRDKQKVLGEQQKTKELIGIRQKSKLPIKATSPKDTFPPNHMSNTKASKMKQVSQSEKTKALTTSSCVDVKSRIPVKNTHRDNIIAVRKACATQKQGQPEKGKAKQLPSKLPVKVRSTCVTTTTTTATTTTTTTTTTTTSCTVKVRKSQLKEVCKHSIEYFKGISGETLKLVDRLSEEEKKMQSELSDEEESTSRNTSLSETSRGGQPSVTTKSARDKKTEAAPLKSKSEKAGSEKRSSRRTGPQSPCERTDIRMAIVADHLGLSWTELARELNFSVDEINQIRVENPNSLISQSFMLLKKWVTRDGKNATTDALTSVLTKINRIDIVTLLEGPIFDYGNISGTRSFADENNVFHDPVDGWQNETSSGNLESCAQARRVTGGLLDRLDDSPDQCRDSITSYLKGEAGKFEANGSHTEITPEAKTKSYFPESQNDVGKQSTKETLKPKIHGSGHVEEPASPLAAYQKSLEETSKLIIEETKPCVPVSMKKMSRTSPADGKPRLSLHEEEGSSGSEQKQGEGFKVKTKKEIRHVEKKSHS
UniProt P13716: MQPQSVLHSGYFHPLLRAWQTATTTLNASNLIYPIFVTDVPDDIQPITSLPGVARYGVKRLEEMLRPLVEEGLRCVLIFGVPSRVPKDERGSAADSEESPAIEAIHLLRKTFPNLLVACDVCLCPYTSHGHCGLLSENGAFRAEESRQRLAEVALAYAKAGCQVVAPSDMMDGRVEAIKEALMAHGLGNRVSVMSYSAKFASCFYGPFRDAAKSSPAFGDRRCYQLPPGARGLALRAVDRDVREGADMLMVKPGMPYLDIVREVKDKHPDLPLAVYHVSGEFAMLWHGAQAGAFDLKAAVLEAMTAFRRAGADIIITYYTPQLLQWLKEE
UniProt P04075: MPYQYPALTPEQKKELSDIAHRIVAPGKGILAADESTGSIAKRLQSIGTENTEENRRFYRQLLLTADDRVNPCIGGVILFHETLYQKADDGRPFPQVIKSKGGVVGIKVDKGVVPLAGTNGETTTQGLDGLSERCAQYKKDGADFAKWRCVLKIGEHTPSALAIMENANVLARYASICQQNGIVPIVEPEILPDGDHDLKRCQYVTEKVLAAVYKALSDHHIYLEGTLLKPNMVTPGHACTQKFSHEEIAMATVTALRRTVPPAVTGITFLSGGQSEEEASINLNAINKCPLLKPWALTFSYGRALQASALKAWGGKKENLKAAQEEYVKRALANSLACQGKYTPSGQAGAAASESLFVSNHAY
UniProt Q96CW1: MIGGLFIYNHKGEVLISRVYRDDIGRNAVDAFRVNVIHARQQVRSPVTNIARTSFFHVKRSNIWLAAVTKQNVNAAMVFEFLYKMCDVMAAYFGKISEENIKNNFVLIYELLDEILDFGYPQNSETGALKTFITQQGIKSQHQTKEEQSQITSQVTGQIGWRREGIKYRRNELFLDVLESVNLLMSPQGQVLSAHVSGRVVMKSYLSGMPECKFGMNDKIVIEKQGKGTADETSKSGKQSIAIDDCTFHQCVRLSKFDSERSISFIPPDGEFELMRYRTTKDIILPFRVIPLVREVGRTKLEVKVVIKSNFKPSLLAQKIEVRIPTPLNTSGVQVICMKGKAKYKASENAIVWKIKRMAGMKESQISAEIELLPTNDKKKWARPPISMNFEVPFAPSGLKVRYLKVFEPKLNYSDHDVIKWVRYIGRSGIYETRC

Compound: Cn1cc(-c2ccc3c(c2)CCN3C(=O)Cc2cccc(C(F)(F)F)c2)c2c(N)ncnc21
Assay: log2 fold change, soluble protein after heating vs DMSO (PISA); higher = thermal stabilisation; K562 lysate, 10 uM; active = over 0.2 and 3.5 SD of the protein, either way, in both replicates (recomputed)
Outline: (§1)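 Values give the log-two fold change in thermal stability against solvent controls, from duplicates. Crude K562 extract at 1 mg/mL protein, made by dounce homogenisation in PBS pH 7.4 with 1 mM MgCl2, was treated with 10 μM compound for 30 min. After 3 min heating across 48°C-58°C, aliquots were pooled, adjusted to 0.5% NP-40 at 4°C and centrifuged at 21,000xg for 90 min. The supernatant was measured by TMTpro 16plex LC-MS/MS with channel sums equalised.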

log2 fold change, inactive:
ALDH4A1 (UniProt P30038) -0.04
ALG8 (UniProt Q9BVK2) 0.02
AP3M1 (UniProt Q9Y2T2) 0.007
ALS2 (UniProt Q96Q42) 0.022
ANXA7 (UniProt P20073) -0.01
ALKBH2 (UniProt Q6NS38) -0.015
ANKRD13D isoform 3 (UniProt Q6ZTN6) -0.071
AMD1 (UniProt P17707) 0.055
AKT1S1 isoform 3 (UniProt Q96B36) 0.018
ANO6 (UniProt Q4KMQ2) 0.001
ANAPC2 (UniProt Q9UJX6) 0.024
ANP32E (UniProt Q9BTT0) -0.038
ANKRD49 (UniProt Q8WVL7) -0.001
AP2S1 (UniProt P53680) 0.032
ANXA2 isoform 2 (UniProt P07355) -0.017
ANKRD28 (UniProt O15084) -0.004
ALDH16A1 (UniProt Q8IZ83) -0.005
ANKMY2 (UniProt Q8IV38) 0.008
AP1G1 isoform 2 (UniProt O43747) -0.016
ANKRD52 (UniProt Q8NB46) -0.045
ALDH2 (UniProt P05091) 0.001
ANK3 (UniProt Q12955) 0.029
AP1S2 isoform 2 (UniProt P56377) -0.077
ANXA6 (UniProt P08133) 0.047
ALAD (UniProt P13716) -0.044
AKT2 (UniProt P31751) 0.005
ANKS1A (UniProt Q92625) 0.018
ANO10 (UniProt Q9NW15) 0.003
ANKRD29 (UniProt Q8N6D5) 0.034
ALKBH8 isoform 4 (UniProt Q96BT7) -0.009
ALDH1A2 (UniProt O94788) 0.002
ANKHD1 isoform 6 (UniProt Q8IWZ3) 0.019
ALDOA (UniProt P04075) -0.063
AP2M1 (UniProt Q96CW1) -0.007

Compound: Cn1cc(CNCC2CCN(c3ncc(C(=O)NO)cn3)CC2)c2ccccc21 [quisinostat]
Assay: as above
Outline: as §1

log2 fold change, inactive:
ALDH4A1 (UniProt P30038) -0.029
ALG8 (UniProt Q9BVK2) 0.019
AP3M1 (UniProt Q9Y2T2) 0.015
ALS2 (UniProt Q96Q42) -0.025
ANXA7 (UniProt P20073) -0.01
ALKBH2 (UniProt Q6NS38) -0.076
ANKRD13D isoform 3 (UniProt Q6ZTN6) 0.024
AMD1 (UniProt P17707) -0.145
AKT1S1 isoform 3 (UniProt Q96B36) -0.014
ANO6 (UniProt Q4KMQ2) 0.001
ANAPC2 (UniProt Q9UJX6) -0.032
ANP32E (UniProt Q9BTT0) 0.016
ANKRD49 (UniProt Q8WVL7) -0.056
AP2S1 (UniProt P53680) 0.001
ANXA2 isoform 2 (UniProt P07355) 0.064
ANKRD28 (UniProt O15084) -0.042
ALDH16A1 (UniProt Q8IZ83) -0.008
ANKMY2 (UniProt Q8IV38) -0.009
AP1G1 isoform 2 (UniProt O43747) -0.055
ANKRD52 (UniProt Q8NB46) -0.037
ALDH2 (UniProt P05091) 0.121
ANK3 (UniProt Q12955) -0.082
AP1S2 isoform 2 (UniProt P56377) -0.251
ANXA6 (UniProt P08133) 0.003
ALAD (UniProt P13716) -0.017
AKT2 (UniProt P31751) 0.001
ANKS1A (UniProt Q92625) -0.055
ANO10 (UniProt Q9NW15) -0.009
ANKRD29 (UniProt Q8N6D5) -0.549
ALKBH8 isoform 4 (UniProt Q96BT7) -0.048
ALDH1A2 (UniProt O94788) 0.036
ANKHD1 isoform 6 (UniProt Q8IWZ3) -0.049
ALDOA (UniProt P04075) -0.004
AP2M1 (UniProt Q96CW1) -0.015
